Experimental data published in US20040214221A1, “High density labeling of DNA with modified or "chromophore" carrying nucleotides and DNA polymerases used” (priority 1999, published 2004).
For at least one compound, name, drawing or mass did not settle the structure.

By UniProt entry, the sequences of proteins in these tests, tags left out. Chains listed by the source or under a name are the forms on record and can include a tag or linker.
UniProt P30317, with tags, fused parts or gaps D141A/DEL1082-1471/DEL495-1032/E143A: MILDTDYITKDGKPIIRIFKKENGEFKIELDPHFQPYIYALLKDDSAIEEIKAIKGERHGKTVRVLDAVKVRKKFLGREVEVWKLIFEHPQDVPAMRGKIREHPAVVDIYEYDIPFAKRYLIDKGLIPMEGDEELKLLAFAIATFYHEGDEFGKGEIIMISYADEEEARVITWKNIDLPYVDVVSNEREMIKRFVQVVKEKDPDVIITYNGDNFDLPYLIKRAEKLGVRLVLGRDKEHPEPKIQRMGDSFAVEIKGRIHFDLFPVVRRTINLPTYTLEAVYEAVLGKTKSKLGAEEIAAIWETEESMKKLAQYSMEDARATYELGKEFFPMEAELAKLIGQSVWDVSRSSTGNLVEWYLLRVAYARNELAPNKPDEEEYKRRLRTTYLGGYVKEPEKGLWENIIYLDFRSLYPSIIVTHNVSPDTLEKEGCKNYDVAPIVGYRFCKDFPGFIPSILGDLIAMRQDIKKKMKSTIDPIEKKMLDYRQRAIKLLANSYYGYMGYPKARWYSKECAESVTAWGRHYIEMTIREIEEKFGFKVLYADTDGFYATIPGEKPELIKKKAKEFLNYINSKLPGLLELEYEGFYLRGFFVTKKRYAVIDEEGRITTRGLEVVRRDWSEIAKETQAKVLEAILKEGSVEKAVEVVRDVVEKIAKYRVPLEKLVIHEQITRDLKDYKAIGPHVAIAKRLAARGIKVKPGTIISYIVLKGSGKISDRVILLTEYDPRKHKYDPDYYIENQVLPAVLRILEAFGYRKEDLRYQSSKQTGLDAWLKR

Tests used:
Tgo exo^− polymerase = format: biochemical, Thermococcus species
Vent exo^− polymerase = Vent exo^− polymerase (Thermococcus litoralis, UniProt P30317, D141A/DEL1082-1471/DEL495-1032/E143A); format: biochemical, Thermococcus species

| SMILES | PCR product formed, productlength 264 bp (Tgo exo^− polymerase) | PCR product formed, productlength 517 bp (Tgo exo^− polymerase) | PCR product formed, productlength 264 bp (Vent exo^− polymerase) | PCR product formed, productlength 517 bp (Vent exo^− polymerase) |
| --- | --- | --- | --- | --- |
| CCCCC#Cc1cn([C@H]2C[C@H](O)[C@@H](COP(=O)(O)OP(=O)(O)OP(=O)(O)O)O2)c2ncnc(N)c12 [Hex^7c^7Ad, 7-Hexinyl-7-Desaza-dATP] | + | − | + | + |
| Cc1c(CC(=O)NCCCCCC(=O)NC/C=C/c2cn([C@H]3C[C@H](O)[C@@H](COP(=O)(O)OP(=O)(O)OP(=O)(O)O)O3)c(=O)[nH]c2=O)c(=O)oc2cc(N)ccc12 [AMCA-6-dUTP] | + | − | + | + |
| CCCCC#Cc1cn([C@H]2C[C@H](O)[C@@H](COP(=O)(O)OP(=O)(O)OP(=O)(O)O)O2)c2nc(N)[nH]c(=O)c12 [Hex^7c^7Gd, 7-Hexinyl-7-desaza-dGTP] | + |  |  |  |
| O=C(CCCCCNC(=O)CCCNC(=O)CCCC[C@@H]1SC[C@@H]2NC(=O)N[C@@H]21)NC/C=C/c1cn([C@H]2C[C@H](O)[C@@H](COP(=O)(O)OP(=O)(O)OP(=O)(O)O)O2)c(=O)[nH]c1=O [Biotin-16-dUTP] | + | + | + | + |
